PubChem BioAssay AID1224828 – NIAID – 2016

Purpose: 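Knock-downs that increase or decrease LPS-induced p65 nuclear translocation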 (primary screen)
System: mouse RAW264.7 G9 macrophage reporter cells (GFP-p65, Tnf promoter-mCherry)
Reagent: siRNA pool against mouse genes, 100 nM
Time to read-out: 2 days siRNA transfection, then 40 min LPS before fixation
Treatment: LPS (Salmonella minnesota R595) at 10 ng/ml
Detection: 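Imaged p65 nuclear translocation ratio, normalised to the plate median, converted to robust z-scores and averaged across two replicates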
Reading the numbers: p65 translocation robust z-score: higher = more nuclear NF-kappaB p65 after LPS than the plate median; nuclear/cytoplasmic p65 ratio: higher = more nuclear NF-kappaB p65
Rule for the call: 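Called active when z exceeds 3.3 or falls under -1.56 (median of Tlr4 controls), giving activity score of at least 50; no calls for control wells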
Meaning of the calls: active = hit (p65 shift raised or lowered); inactive = no clear change
In all, the deposit lists about 17,000 reagents; below is a random part of them. In the full data, 762 (4.5%) were called active. 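Active calls include both raised and lowered p65 entry, mostly lowered; wells with fewer than 50 cells lack a z-score.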 Raw values are not corrected between plates. Entries without a mark were called inactive. Some reagents were tested in more than one well and are listed for each.

gene symbol | p65 translocation robust z-score | nuclear/cytoplasmic p65 ratio, rep 1 | nuclear/cytoplasmic p65 ratio, rep 2 | low cell count flag
Prss28 | -0.51 | 1.47 | 1.37 | enough cells to score
Rabac1 | 1.91 | 1.74 | 1.83 | enough cells to score
Gng13 | -0.29 | 1.6 | 1.5 | enough cells to score
Vsig2 | 0.34 | 1.63 | 1.7 | enough cells to score
Glt8d1 | -1.63 (active) | 1.18 | 1.08 | enough cells to score
Or9s18 | -0.17 | 1.45 | 1.23 | enough cells to score
Atp6ap2 | -0.59 | 1.45 | 1.64 | enough cells to score
Slc30a3 | -0.16 | 1.46 | 1.53 | enough cells to score
Pole2 | 0.36 | 1.43 | 1.25 | enough cells to score
Plscr3 | -0.71 | 1.42 | 1.3 | enough cells to score
Or6c88 | – | 1.44 | 1.18 | fewer than 50 cells per well; well left out of scoring
Itga9 | 0.52 | 1.48 | 1.51 | enough cells to score
Gnaz | -0.09 | 1.49 | 1.58 | enough cells to score
Srcin1 | – | 1.48 | 1.18 | fewer than 50 cells per well; well left out of scoring
Or4c29 | – | 1.49 | 1.55 | fewer than 50 cells per well; well left out of scoring
Dnajb7 | 0.09 | 1.46 | 1.39 | enough cells to score
Minar1 | -1.41 | 1.38 | 1.35 | enough cells to score
Chchd3 | -0.26 | 1.56 | 1.73 | enough cells to score
Zfp316 | -0.49 | 1.34 | 1.2 | enough cells to score
Mrgprb1 | 1.14 | 1.99 | 1.74 | enough cells to score
Strn | -0.64 | 1.17 | 1.16 | enough cells to score
Rnf133 | -1.08 | 1.18 | 1.1 | enough cells to score
Or5l13 | -0.39 | 1.69 | 1.44 | enough cells to score
Or1o4 | – | 1.36 | 1.06 | fewer than 50 cells per well; well left out of scoring
Tnfsf10 | -0.44 | 1.45 | 1.46 | enough cells to score
Tdg | -1.23 | 1.21 | 1.13 | enough cells to score
Agps | -0.66 | 1.5 | 1.54 | enough cells to score
Dcp1a | 1.11 | 1.64 | 1.44 | enough cells to score
Map1lc3b | -1.87 (active) | 1.45 | 1.26 | enough cells to score
Mat1a | -0.21 | 1.41 | 1.32 | enough cells to score
Ska3 | 0.38 | 1.36 | 1.4 | enough cells to score
Tfap2c | -0.01 | 1.54 | 1.5 | enough cells to score
Kdm4d | – | 1.03 | 1.31 | fewer than 50 cells per well; well left out of scoring
Or5d18 | – | 1.5 | 1.32 | fewer than 50 cells per well; well left out of scoring
Rad51 | 2.27 | 1.71 | 1.96 | enough cells to score
Tbc1d10c | 1.41 | 1.54 | 1.04 | enough cells to score
Vmn1r215 | – | 1.45 | 1.2 | fewer than 50 cells per well; well left out of scoring
B3gnt7 | 0.57 | 1.58 | 1.69 | enough cells to score
Socs4 | 1.98 | 1.46 | 2.22 | enough cells to score
Chek2 | 1.01 | 1.93 | 1.45 | enough cells to score
A930017M01Rik | 2.16 | 1.67 | 1.81 | enough cells to score
Ncmap | -0.49 | 1.22 | 1.46 | enough cells to score
Agtr1b | -0.18 | 1.5 | 1.54 | enough cells to score
D830014E11Rik | 0.39 | 1.57 | 1.66 | enough cells to score
Sytl5 | -0.41 | 1.26 | 1.19 | enough cells to score
Ogfr | 1.13 | 1.68 | 1.48 | enough cells to score
Rerg | 0.18 | 1.41 | 1.26 | enough cells to score
Atg16l1 | 0.28 | 1.59 | 1.6 | enough cells to score
Fech | – | 1.35 | 1.28 | fewer than 50 cells per well; well left out of scoring
Gtf3c6 | 0.48 | 1.52 | 1.47 | enough cells to score
Alpl | -1.82 (active) | 1.32 | 1.37 | enough cells to score
Ren2 | – | 1.39 | 1.57 | fewer than 50 cells per well; well left out of scoring
Ints6 | 0.56 | 1.58 | 1.43 | enough cells to score
Camk4 | – | 1.28 | 1.37 | fewer than 50 cells per well; well left out of scoring
Camk4 | -0.12 | 1.69 | 1.36 | enough cells to score
Psmc5 | – | 1.17 | 1.26 | fewer than 50 cells per well; well left out of scoring
Hoga1 | 0.33 | 1.55 | 1.71 | enough cells to score
Tmem134 | -1.62 (active) | 1.15 | 1.14 | enough cells to score
Tuba8 | -0.35 | 1.47 | 1.45 | enough cells to score
Igfbp6 | -0.43 | 1.33 | 1.37 | enough cells to score
Kcne4 | -0.7 | 1.44 | 1.33 | enough cells to score
Cox7a2 | 0.43 | 1.53 | 1.97 | enough cells to score
Relch | – | 1.19 | 1.19 | fewer than 50 cells per well; well left out of scoring
Jtb | -1.18 | 1.39 | 1.26 | enough cells to score
Kif1c | – | 1.31 | 1.22 | fewer than 50 cells per well; well left out of scoring
Vmn2r37 | -0.98 | 1.16 | 1.2 | enough cells to score
Ddx19b | – | 1.14 | 0.779 | fewer than 50 cells per well; well left out of scoring
Fmo4 | -0.06 | 1.46 | 1.33 | enough cells to score
Slc6a7 | -0.91 | 1.37 | 1.07 | enough cells to score
Epb41l1 | 0.22 | 1.53 | 1.58 | enough cells to score
Ptrh2 | 1.61 | 1.7 | 1.63 | enough cells to score
Gpr156 | 1.01 | 1.63 | 1.75 | enough cells to score
Or52e7 | 1.89 | 1.7 | 1.62 | enough cells to score
Nudt11 | 1.92 | 1.93 | 1.88 | enough cells to score
Kif3a | -0.52 | 1.36 | 1.35 | enough cells to score
